Source: article PMC3311585
No constants are given. Whether binding was seen depends on the method and setting. In cells and extracts the contact can be indirect. Some binding calls cover weakened binding; strength is not graded here.

Protein sequences, listed by entry. Tags and fused reporters are not part of them. Lines headed by an entry give the natural chain unless they say otherwise; changes in a name come on top.
UniProt P08514: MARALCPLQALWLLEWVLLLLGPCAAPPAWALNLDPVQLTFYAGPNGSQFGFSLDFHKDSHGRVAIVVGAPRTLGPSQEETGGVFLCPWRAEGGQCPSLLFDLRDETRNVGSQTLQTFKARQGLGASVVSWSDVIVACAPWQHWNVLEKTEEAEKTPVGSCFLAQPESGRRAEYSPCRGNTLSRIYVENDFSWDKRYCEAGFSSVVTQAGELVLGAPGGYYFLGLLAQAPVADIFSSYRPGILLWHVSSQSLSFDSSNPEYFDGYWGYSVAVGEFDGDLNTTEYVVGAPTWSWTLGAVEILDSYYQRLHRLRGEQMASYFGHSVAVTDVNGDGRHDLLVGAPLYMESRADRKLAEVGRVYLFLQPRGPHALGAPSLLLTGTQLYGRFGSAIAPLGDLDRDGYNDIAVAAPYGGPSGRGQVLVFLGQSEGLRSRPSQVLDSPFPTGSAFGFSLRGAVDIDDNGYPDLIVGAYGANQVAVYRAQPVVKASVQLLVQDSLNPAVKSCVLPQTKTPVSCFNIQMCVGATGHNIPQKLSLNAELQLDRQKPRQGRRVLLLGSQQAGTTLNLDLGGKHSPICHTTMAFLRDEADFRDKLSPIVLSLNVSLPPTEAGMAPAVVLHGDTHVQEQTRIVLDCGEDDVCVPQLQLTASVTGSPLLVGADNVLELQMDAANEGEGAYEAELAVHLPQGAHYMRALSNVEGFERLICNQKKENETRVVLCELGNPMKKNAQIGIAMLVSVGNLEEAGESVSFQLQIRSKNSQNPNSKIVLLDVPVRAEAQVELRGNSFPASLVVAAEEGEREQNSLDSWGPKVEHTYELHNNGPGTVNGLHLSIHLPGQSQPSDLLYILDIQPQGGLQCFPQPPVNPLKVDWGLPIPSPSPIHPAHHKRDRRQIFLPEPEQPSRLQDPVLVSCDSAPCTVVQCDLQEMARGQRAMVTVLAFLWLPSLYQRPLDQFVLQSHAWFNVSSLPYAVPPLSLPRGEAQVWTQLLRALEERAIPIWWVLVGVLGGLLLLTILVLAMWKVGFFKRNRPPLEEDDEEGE
UniProt Q96AC1: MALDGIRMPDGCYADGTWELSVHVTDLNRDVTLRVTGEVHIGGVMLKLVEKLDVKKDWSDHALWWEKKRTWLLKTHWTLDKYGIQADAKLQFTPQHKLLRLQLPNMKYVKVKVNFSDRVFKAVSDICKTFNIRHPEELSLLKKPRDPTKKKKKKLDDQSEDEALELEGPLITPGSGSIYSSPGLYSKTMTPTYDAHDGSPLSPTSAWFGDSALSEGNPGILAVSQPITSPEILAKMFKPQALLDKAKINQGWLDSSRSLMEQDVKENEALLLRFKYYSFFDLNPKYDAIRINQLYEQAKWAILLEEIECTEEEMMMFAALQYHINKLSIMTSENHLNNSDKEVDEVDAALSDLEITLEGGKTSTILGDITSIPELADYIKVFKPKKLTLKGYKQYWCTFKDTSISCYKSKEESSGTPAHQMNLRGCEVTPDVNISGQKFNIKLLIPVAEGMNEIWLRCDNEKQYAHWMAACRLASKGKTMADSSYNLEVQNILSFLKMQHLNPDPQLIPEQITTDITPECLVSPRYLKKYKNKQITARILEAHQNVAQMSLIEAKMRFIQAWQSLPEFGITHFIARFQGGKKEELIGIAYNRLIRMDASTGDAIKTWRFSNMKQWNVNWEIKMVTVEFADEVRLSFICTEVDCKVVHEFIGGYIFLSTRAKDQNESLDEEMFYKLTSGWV
UniProt P26039: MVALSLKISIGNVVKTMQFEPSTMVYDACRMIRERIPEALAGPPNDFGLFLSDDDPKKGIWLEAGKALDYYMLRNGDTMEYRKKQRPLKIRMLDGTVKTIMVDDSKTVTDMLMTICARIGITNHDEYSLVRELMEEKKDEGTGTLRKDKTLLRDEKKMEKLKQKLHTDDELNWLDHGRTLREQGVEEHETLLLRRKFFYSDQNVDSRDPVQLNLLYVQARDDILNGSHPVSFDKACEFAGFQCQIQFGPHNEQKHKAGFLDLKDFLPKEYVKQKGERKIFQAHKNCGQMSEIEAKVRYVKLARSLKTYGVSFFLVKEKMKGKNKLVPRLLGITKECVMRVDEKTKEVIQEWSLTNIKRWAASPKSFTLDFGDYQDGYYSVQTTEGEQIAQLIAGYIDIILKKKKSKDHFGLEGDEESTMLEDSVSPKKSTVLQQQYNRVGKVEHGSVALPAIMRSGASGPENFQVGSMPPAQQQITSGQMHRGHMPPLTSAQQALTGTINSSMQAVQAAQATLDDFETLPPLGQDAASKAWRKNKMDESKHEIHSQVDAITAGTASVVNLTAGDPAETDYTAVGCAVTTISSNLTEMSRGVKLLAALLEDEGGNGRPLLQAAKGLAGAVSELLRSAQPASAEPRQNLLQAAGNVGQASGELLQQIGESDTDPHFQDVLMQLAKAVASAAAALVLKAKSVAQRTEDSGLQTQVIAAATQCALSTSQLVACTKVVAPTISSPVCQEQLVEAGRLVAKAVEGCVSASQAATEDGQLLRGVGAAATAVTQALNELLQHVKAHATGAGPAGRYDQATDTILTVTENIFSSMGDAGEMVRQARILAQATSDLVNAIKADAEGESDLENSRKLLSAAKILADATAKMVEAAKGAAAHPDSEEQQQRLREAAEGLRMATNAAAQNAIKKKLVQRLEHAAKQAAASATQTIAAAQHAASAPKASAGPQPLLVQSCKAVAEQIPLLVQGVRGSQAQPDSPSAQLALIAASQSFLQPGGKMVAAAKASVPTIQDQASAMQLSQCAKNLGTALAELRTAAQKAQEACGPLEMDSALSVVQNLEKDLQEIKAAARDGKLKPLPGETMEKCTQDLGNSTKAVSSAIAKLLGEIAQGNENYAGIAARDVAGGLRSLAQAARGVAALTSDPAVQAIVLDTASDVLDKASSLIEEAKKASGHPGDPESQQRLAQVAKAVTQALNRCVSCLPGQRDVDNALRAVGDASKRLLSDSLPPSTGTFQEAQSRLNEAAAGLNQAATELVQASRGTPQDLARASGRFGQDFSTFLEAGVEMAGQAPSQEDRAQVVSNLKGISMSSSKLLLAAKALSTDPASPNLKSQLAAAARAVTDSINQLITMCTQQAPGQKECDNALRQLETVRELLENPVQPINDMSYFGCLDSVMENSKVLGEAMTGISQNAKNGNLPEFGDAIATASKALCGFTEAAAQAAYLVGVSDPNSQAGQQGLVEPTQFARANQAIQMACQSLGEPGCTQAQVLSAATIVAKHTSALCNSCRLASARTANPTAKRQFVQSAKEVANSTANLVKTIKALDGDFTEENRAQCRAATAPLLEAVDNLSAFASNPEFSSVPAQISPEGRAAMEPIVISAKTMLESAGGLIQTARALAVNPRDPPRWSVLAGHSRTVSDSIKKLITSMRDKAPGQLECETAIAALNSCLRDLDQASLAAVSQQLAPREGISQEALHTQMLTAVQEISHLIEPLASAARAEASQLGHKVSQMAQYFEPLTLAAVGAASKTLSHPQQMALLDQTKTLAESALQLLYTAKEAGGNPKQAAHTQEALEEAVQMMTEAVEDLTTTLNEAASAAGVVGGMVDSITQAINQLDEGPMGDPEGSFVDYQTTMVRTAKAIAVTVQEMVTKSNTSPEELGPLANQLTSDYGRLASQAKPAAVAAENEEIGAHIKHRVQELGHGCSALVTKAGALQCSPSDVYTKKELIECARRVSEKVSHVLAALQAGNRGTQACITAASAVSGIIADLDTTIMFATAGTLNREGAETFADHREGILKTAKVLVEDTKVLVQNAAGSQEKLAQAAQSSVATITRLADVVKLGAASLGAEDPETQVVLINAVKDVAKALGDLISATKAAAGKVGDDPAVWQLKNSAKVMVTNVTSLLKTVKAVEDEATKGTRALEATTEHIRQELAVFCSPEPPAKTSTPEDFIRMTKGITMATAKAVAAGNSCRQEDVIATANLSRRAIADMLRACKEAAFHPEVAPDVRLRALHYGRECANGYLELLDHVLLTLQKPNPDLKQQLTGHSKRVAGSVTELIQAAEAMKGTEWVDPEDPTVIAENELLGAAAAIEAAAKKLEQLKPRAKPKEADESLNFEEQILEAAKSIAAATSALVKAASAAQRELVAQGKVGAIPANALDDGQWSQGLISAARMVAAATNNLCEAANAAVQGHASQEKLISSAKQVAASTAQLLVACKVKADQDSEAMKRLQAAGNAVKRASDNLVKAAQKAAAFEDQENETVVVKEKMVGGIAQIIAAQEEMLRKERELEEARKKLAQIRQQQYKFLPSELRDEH

Columns and labels:
[1] = molecular target: αIIb-VCβ3 (integrin αIIbβ3 with the C-terminal half of Venus fused to the C-terminus of αIIb) (UniProt P08514); experiment: split reporter; BiFC of Venus halves (VN on talin or kindlin-2, VC on αIIb) in living CHO cells, read by flow cytometry; signal normalised to αIIbβ3 expression (antibody D57); doxycycline induction; also with kindlin-2 shRNA knock-down or over-expression of kindlins, THD or talin
[2] = molecular target: αIIb-VCβ3 (integrin αIIbβ3 with the C-terminal half of Venus fused to the C-terminus of αIIb) (UniProt P08514); experiment: split reporter; BiFC in αIIb-VCβ3 CHO cells plated on fibrinogen for 45 min, fixed, stained with D57, deconvolution microscopy; ratio of BiFC to αIIbβ3 fluorescence at the membrane edge; control or kindlin-2 shRNA

Substance	binding [1]	binding [2]
VN-kindlin-2 (Venus N-terminal moiety fused to kindlin-2) (from UniProt Q96AC1 1-680)	binds	–
VN-talin (Venus N-terminal moiety fused to the N-terminus of talin) (from UniProt P26039 1-2541)	binds	binds
